Source: patent US8697376B2 (Lifesensors, INc., priority 2010, dated 2014)

Test: general procedure: Fmoc solid-phase peptide synthesis; 2-chlorotrityl resin; HBTU/HOBt-H2O/DIPEA
Settings: conjugation step, two steps (cleavage + coupling)

Question: With “Cbz-Leu-Leu-Leu proteasome substrate bearing a dansyl fluorophore” as the substance, how does the conjugation yield read?
Answer: Its conjugation yield is 35% for two steps.
